Reference: PubChem BioAssay AID540303 (National Center for Advancing Translational Sciences (NCATS), 2011)
The whole screen tested about 330,000 compounds, of which about 1,000 (0.3%) were called active. The shares of active, inactive and inconclusive entries below differ from those in the screen. Calls come from the whole dose curve; as a rule, active = well fitted inhibition curve with a large enough effect; inconclusive = small, poorly fitted or top-dose-only effect; inactive = no such curve, though single readings can be large or run the other way; tested in mouse RAW 264.7 cells. Potencies beside an inconclusive call are fits to weak or partial responses and may not hold up.

Assay: qHTS for Inhibitors of Cell Surface uPA Generation; note: nearly all actives have a fitted effect of over 55% in size
Settings: cell surface uPA generation assay; series mostly up to 38.3 µM; activity change, negative = inhibition: at the top concentration
Summary of the method: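 RAW 264.7, 4000 cells/well, o/n 37 C; cpd 1:5 dilution, up to 38.3 uM final; 24 h 37 C/5% CO2 with reagent; ATP-Lite lum. High ATP = LF entry blocked.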
% is set by controls: 0 for no effect and ±100 for the full control effect; potency is the fitted concentration of half-maximal effect.

| Compound | Potency | activity change, negative = inhibition |
| --- | --- | --- |
| Cc1ccc(N(C(=O)c2ccccc2Cl)C2=NC(C)CS2)c(C)c1 (stereo not drawn) | inconclusive: 17.8 µM [inhibitor, single point] |  |
| CCN1CCN(Cc2nc3c(c(=O)n(C)c(=O)n3C)n2CC(=O)c2ccccc2)CC1 | inconclusive: 8.91 µM [inhibitor, partial curve, poor fit] |  |
| O=[N+]([O-])/C(C(Cl)=C(Cl)Cl)=C(\Sc1ccccc1)N1CCCCC1 | inconclusive: 11.2 µM [inhibitor, partial curve, poor fit] |  |
| O=C(CCl)Nc1cc2[nH]c(=O)[nH]c2cc1Br | inconclusive: 6.31 µM [inhibitor, partial curve] |  |
| Cc1nn(Cc2ccc(Cl)cc2)c(=O)n1N(C)c1ncc(C(F)(F)F)cc1Cl |  | inactive: -1.62% |
| COc1ccccc1C(C[N+](=O)[O-])c1c(N)n(C)c(=O)n(C)c1=O (stereo not drawn) | inconclusive: 7.94 µM [inhibitor, partial curve, poor fit] |  |
| CCN(C[C@H]1N[C@@](Cc2ccccc2)(C(=O)OC)[C@H]2C(=O)N(Cc3ccccc3)C(=O)[C@@H]12)C(=O)Nc1ccc(C(F)(F)F)cc1 | inconclusive: 28.2 µM [inhibitor, single point] |  |
| Cc1cc(C)cc(NC(=S)NCc2cccs2)c1 |  | inactive: -6.33% |
| O=C(NNC1=NS(=O)(=O)c2ccccc21)c1ccc(Cl)cc1 | active: 3.55 µM |  |
| Cc1cccc(OCc2nn[nH]n2)c1C |  | inactive: -0.154% |
| C=Cn1ccnc1P(=S)(c1ccc2c(c1)c1ccccc1n2CC)c1nccn1C=C | inconclusive: 10 µM [inhibitor, single point] |  |
| CCOC(=O)c1c(NC(=O)CSc2ncccn2)sc2c1CCN(Cc1ccccc1)C2 |  | inactive: -6.13% |
| Cc1ccc(N(C)C(=O)C2CCN(S(=O)(=O)c3ccc4c(c3)oc(=O)n4C)CC2)cc1 |  | inactive: -7.06% |
| COc1cc(/C=C/C(=O)c2ccccc2O)cc(OC)c1OC | inconclusive: 8.91 µM [inhibitor, partial curve] |  |
| C/C(=N\NC(=O)c1nnn(-c2nonc2N)c1CN(C)c1ccccc1)c1ccccn1 | inconclusive: 1 µM [inhibitor, full curve, poor fit] |  |
| Cc1ccc(N(C)S(=O)(=O)c2cccc(C(=O)Nc3nc4ccccc4[nH]3)c2)cc1 | inconclusive: 20 µM [inhibitor, single point] |  |
| CCn1cnc2cc(NCc3nc4ccccc4n3C)ccc21 | inconclusive: 5.01 µM [inhibitor, partial curve, poor fit] |  |
| Cn1c(=O)c2c(ncn2CCOc2cccc(Br)c2)n(C)c1=O | inconclusive: 10 µM [inhibitor, partial curve, poor fit] |  |
| CN(C(=O)CCl)C1CCCc2ccccc21 (stereo not drawn) | inconclusive: 11.2 µM [inhibitor, partial curve, poor fit] |  |
| Cn1nnnc1SCCNC(=O)C1CCC(=O)N(Cc2ccccc2F)C1 (stereo not drawn) | inconclusive: 12.6 µM [inhibitor, single point] |  |
| C=CCN1c2ccccc2[C@]23C[C@@H](C(=O)OC)N(C(=O)c4cc(C)oc4C)C2=NC(C(=O)OC)=C(C(=O)OC)[C@H]13 | active: 5.62 µM |  |

| Compound | Potency | activity change, negative = inhibition |
| --- | --- | --- |
| COc1ccccc1N1CCN(C(=O)c2ccc3[nH]c(C)c(C)c3c2)CC1 | inconclusive: 0.398 µM [inhibitor, full curve, poor fit] |  |
| COC(=O)c1cccc(Cn2c(Cl)c(/C=N/NC(=O)c3ccco3)sc2=O)c1 |  | inactive: -25.6% |
| CCCN1CCN(C(=O)C2CCN(c3nnc(C)c4c(C)n(-c5ccc(C)cc5)nc34)CC2)CC1 | inconclusive: 7.94 µM [inhibitor, partial curve] |  |
| O=C(OCCOc1cccc(Cl)c1)c1cc(S(=O)(=O)N2CCCCC2)ccc1N1CCOCC1 | inconclusive: 11.2 µM [inhibitor, single point] |  |
| CCOc1ccccc1NC(=O)Cn1c(=O)n(-c2ccccc2)c(=O)c2oc3ccccc3c21 |  | inactive: 4.18% |
| COc1ccc(S(=O)(=O)N2CCOc3ccccc32)cc1 | inconclusive: 1.41 µM [inhibitor, full curve, poor fit] |  |
| O=C(NCc1ccccc1CN1CCCC1)C1CCN(S(=O)(=O)c2ccc(Cl)cc2)CC1 | inconclusive: 2.82 µM [inhibitor, full curve, poor fit] |  |
| COc1ccc2c(c1)[C@H]1[C@H](CO2)[C@H](c2ccccc2)[C@]2(C)C(=O)Nc3cc(Cl)ccc3C(=O)N12 | inconclusive: 4.47 µM [inhibitor, partial curve, poor fit] |  |
| CC(=O)NCCc1nc2cc(NC(=O)Nc3ccccc3)ccc2n1C | inconclusive: 12.6 µM [inhibitor, single point] |  |
| CC1(C)CCC(=O)C=C1Nc1ccc(F)c(Cl)c1 | inconclusive: 28.2 µM [inhibitor, single point] |  |
| O=C(/C=C/c1c(F)cccc1Cl)Nc1cccnc1 | inconclusive: 28.2 µM [inhibitor, single point] |  |
| CCN(CC(=O)NCc1ccc(F)cc1)Cc1nc2cc(Cl)ccc2c(=O)[nH]1 |  | inactive: -2.08% |
| O=[N+]([O-])c1ccc(/C=N/NC(=S)Nc2ccc(Cl)cc2Cl)s1 | inconclusive: 5.62 µM [inhibitor, partial curve, poor fit] |  |
| CCC(=O)NCCc1nc2cc(NC(=O)c3ccco3)ccc2n1C |  | inactive: -2.33% |
| Cn1c(=O)c2c(nc(CN3CCN(Cc4ccccc4)CC3)n2Cc2ccc(Cl)cc2)n(C)c1=O | inconclusive: 12.6 µM [inhibitor, single point] |  |
| O=[N+]([O-])c1ccc(-c2c(-c3ccccc3)ncc3cc(F)ccc23)cc1 | inconclusive: 8.91 µM [inhibitor, single point] |  |
| COC(=O)c1cc(NC(=O)CC2SC(=Nc3ccccc3)N(CCc3c[nH]c4ccccc34)C2=O)cc(C(=O)OC)c1 (stereo not drawn) |  | inactive: 4.36% |
| COc1ccc(CCNC(=O)c2nn(C)c3c2CS(=O)(=O)c2ccccc2-3)cc1OC | inconclusive: 14.1 µM [inhibitor, partial curve, poor fit] |  |
| Cc1ccc(C)c(CNc2ccc(S(=O)(=O)N3CCCCC3)cc2)c1 | active: 2.51 µM |  |
| COc1cc2c(cc1OC)C(=O)N1[C@H]3c4cc(Cl)ccc4OC[C@@H]3[C@H](c3ccccc3)[C@]1(C)C(=O)N2 | inconclusive: 8.91 µM [inhibitor, partial curve, poor fit] |  |
| COc1ccc(OC)c(NC(=O)CSc2ccc(-c3ccco3)nn2)c1 |  | inactive: 1.48% |

| Compound | Potency | activity change, negative = inhibition |
| --- | --- | --- |
| O=c1cc(N2CCCCCC2)[nH]c(=O)n1-c1ccc(Cl)cc1 | inconclusive: 12.6 µM [inhibitor, single point] |  |
| COC(=O)c1ccc(-c2ccc(/C=N/N3C(=O)C4C5C=CC(CC5)C4C3=O)o2)cc1 (stereo not drawn) |  | inactive: -0.333% |
| CCC(C(=O)O)n1c2ccccc2c2cn[nH]c(=O)c21 (stereo not drawn) | inconclusive: 0.0079 µM [inhibitor, full curve, poor fit] |  |
| CC(=O)Nc1c(C)ccc(S(N)(=O)=O)c1C |  | inactive: 2.34% |
| CCN1CCN(C(c2cccnc2)c2c(NC(=O)c3ccco3)sc(C)c2C)CC1 (stereo not drawn) | inconclusive: 1.12 µM [inhibitor, partial curve, poor fit] |  |
| O=C(NC1CCNCC1)C1CC1 | inconclusive: 12.6 µM [inhibitor, single point] |  |
| COc1ccc2cc3c(N)nn(C(=O)Cc4c[nH]c5ccccc45)c3nc2c1 | inconclusive: 28.2 µM [inhibitor, single point] |  |
| O=C(c1ccc(Cl)c(S(=O)(=O)N2CCOCC2)c1)N(Cc1ccco1)Cc1cccs1 | active: 1.12 µM |  |
| CCOC(=O)c1nnn(-c2nonc2N)c1-c1ccc(Br)cc1 | inconclusive: 35.5 µM [inhibitor, partial curve, poor fit] |  |
| Cc1sc2nc(SCC(=O)N(C)c3ccccc3)n(C)c(=O)c2c1C | inconclusive: 5.01 µM [inhibitor, partial curve, poor fit] |  |
| CC1CC(C)CN(c2ccc(S(=O)(=O)N3CCOCC3)cc2)C1 (stereo not drawn) | inconclusive: 7.94 µM [inhibitor, partial curve, poor fit] |  |
| CCC(COC(=O)c1ccccc1)Oc1cc(NCc2ccccc2)c2ncn(C(C)C)c2c1 (stereo not drawn) | inconclusive: 5.62 µM [inhibitor, partial curve, poor fit] |  |
| COc1cc(/C=C(\C#N)C(=O)Nc2ccc3c(c2)OCCO3)ccc1O | active: 10 µM |  |
| Cc1ccc(-c2c(C)sc(=NC(=O)c3ccco3)n2C)cc1 | inconclusive: 3.55 µM [inhibitor, partial curve] |  |
| Cc1csc(NC(=O)c2cc3ccccc3o2)n1 | inconclusive: 3.98 µM [inhibitor, partial curve, poor fit] |  |
| Cc1cc(C)cc(NC(=O)c2nnn(Cc3cc(C)ccc3C)c2N)c1 | inconclusive: 11.2 µM [inhibitor, partial curve, poor fit] |  |
| CC(Sc1nnc(-c2cccs2)n1N)C(=O)NCC1CCCO1 (stereo not drawn) |  | inactive: -1.68% |
| CC(C)(C)c1ccc(CSc2ccc(S(=O)(=O)N3CCOCC3)cn2)cc1 | inconclusive: 12.6 µM [inhibitor, single point] |  |
| COc1ccc(N(C(=O)Cc2cccs2)C(C(=O)NC2CCCC2)c2ccncc2)cc1 (stereo not drawn) |  | inactive: -3.35% |
| CCCNC(=O)c1ccc2c(=O)c(O)c(-c3ccc(F)cc3)[nH]c2c1 | inconclusive: 8.91 µM [inhibitor, single point] |  |
| COc1ccc2[nH]c3c(c2c1)CCN1C(=O)C(CC(=O)NCc2ccc(OC)c(OC)c2)C[C@H](C(=O)N2CCOCC2)[C@@]31CCC1CCCC1 (stereo partly drawn) | inconclusive: 12.6 µM [inhibitor, single point] |  |

Molecules shown so far with bromine, in the order listed:

| Compound | Potency | activity change, negative = inhibition |
| --- | --- | --- |
| O=C(CCl)Nc1cc2[nH]c(=O)[nH]c2cc1Br | inconclusive: 6.31 µM [inhibitor, partial curve] |  |
| Cn1c(=O)c2c(ncn2CCOc2cccc(Br)c2)n(C)c1=O | inconclusive: 10 µM [inhibitor, partial curve, poor fit] |  |
| CCOC(=O)c1nnn(-c2nonc2N)c1-c1ccc(Br)cc1 | inconclusive: 35.5 µM [inhibitor, partial curve, poor fit] |  |
